## Primary screen of a compound library

Amino acid sequences for entries named in this document (tags omitted).
UniProt P9WPC5, whole entry: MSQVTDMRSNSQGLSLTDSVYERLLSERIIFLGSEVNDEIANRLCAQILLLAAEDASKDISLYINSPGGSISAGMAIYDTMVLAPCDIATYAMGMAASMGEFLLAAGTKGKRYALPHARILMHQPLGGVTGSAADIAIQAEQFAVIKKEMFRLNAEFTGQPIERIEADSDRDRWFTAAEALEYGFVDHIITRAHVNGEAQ
UniProt P9WPC3, whole entry partner: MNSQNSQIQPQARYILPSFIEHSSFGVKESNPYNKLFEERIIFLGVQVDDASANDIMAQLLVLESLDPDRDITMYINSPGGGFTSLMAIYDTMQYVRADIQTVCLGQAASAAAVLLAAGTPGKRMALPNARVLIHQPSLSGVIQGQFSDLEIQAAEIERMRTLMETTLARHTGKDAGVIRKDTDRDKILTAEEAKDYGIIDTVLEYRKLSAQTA
UniProt I6X8D2, whole entry: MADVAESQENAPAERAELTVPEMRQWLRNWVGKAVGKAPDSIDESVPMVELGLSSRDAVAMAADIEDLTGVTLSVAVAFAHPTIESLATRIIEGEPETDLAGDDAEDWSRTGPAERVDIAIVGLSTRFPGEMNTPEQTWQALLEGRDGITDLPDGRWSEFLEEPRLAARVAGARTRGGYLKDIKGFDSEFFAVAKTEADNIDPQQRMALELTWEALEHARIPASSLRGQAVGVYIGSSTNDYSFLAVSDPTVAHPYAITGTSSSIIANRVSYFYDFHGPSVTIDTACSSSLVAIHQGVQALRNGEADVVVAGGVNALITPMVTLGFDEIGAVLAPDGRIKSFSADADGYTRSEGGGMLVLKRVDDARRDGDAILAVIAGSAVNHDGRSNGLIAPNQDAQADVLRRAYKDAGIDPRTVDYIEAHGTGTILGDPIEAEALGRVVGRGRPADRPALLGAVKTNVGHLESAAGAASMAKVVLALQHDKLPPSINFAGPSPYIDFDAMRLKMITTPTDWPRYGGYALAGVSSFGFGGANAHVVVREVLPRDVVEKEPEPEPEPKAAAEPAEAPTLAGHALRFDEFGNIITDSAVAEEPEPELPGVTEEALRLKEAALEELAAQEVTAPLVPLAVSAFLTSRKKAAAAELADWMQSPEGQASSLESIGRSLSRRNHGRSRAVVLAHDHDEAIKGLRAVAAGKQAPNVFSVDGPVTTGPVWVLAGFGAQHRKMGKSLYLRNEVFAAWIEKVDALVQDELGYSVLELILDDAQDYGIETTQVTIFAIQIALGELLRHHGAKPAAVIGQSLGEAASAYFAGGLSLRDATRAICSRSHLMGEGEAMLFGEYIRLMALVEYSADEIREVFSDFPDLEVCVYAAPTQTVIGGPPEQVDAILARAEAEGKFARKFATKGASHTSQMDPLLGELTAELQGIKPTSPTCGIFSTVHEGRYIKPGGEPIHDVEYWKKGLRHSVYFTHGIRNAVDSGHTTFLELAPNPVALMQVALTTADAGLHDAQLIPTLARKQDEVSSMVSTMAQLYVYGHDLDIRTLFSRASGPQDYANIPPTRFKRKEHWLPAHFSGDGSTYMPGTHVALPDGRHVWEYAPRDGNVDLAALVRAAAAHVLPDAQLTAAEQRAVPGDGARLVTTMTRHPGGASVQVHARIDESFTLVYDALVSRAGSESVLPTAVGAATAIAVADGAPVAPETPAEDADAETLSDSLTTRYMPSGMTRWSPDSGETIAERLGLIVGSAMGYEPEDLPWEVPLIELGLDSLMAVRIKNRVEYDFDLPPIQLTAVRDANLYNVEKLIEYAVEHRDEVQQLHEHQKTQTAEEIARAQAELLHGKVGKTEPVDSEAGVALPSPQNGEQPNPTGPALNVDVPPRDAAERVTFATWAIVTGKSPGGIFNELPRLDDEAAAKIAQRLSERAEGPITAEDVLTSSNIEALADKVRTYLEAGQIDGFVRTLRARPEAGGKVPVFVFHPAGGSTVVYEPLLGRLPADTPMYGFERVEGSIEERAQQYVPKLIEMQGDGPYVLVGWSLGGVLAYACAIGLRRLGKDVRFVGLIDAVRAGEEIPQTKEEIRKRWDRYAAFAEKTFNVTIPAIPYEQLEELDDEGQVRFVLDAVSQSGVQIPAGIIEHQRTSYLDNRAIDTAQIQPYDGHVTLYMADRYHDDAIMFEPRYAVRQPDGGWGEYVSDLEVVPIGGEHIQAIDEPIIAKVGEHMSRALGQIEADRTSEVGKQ

From ChEMBL document CHEMBL3988442, “University of Dundee, Small-Polar-MMV Screening Library” (2021).

ClpP1P2: 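ClpP1P2, Mycobacterium tuberculosis (UniProt P9WPC5 and UniProt P9WPC3). Protease assay of ClpP1P2, read by the AMC dye that it sets free. Compounds at 50 µM. Higher reads as stronger inhibition, judged from the few compounds that gave an IC50. Most other retested compounds had strongly negative values. Size under these conditions: about 69,000 compounds, about 10 of them at 50% or above in at least one test.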
Pks13 thioesterase: 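Polyketide synthase Pks13, Mycobacterium tuberculosis (UniProt I6X8D2). Enzyme assay of the thioesterase domain of polyketide synthase 13; the read-out is not stated. Concentration: 30 µM. Higher reads as stronger inhibition (inferred from which compounds were picked for retests). About 67,000 compounds were tested under these conditions; 0.46% (about 300) showed 50% or more at least once.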

Values are the deposited “Percent Effect”, in %. The record does not define 0% and 100%; most values in the screen are far below 50% and negative numbers occur (in some assays of this library far below -100). This is an unselected part of the compounds tested.

| structure | ClpP1P2 | Pks13 thioesterase |
|---|---|---|
| `Cc1nc(N)cc(C2CCN2CCC(N)=O)n1` (centres undefined) | -17.3 | 7.828 |
| `Cc1cc(CN(C)C(=O)c2cccc(N3CCCC3=O)c2)no1` | 15.18 | -24.18 |
| `O=C(C1CCOC1)N1CCc2ncnc(C3CC3)c2CC1` (centres undefined) | -18.13 | 7.991 |
| `O=C1COC2(CCN(Cc3ccncc3)CC2)CN1c1ccccc1` | 10.22 | 17.45 |
| `CN(C)S(=O)(=O)N1CCN(C(=O)OC(C)(C)C)CC12CCCCC2` | 5.058 | -6.115 |
| `Cc1noc(CN(Cc2cccc(C#N)c2)Cc2cccs2)n1` | -14.27 | -9.716 |
| `O=C(c1ccc2c(c1)[nH]c(=O)n2[C@H]1CC[C@H](O)CC1)N1CCOCC1` | -1.749 | -28.94 |
| `CCCNC(=O)c1cccc2ncccc12` | 5.577 | -25.41 |
| `Cn1ccnc1CN1CCO[C@H]2C(CNC(=O)c3ccco3)CC[C@@H]21` (some centres undefined) | 0.912 | -18.69 |
| `CCc1nc2n(n1)CCCC2NC(=O)Nc1ccc(SC)c(F)c1` (centres undefined) | -4.89 | -12 |
| `Cc1ncccc1Oc1ncnc(N2CCC(O)(CO)CC2)c1C` | -18.2 | -0.6792 |
| `Cc1ccc(CN2Cc3nccn3CC(Cn3cncn3)C2)s1` (centres undefined) | -11.94 | -8.421 |
| `C[C@@H](O)CNC(=O)c1nc(Cc2c(Cl)cccc2Cl)no1` | -3.799 | -5.12 |
| `CC(NC1CCSCC1)c1ccccc1-n1cccn1` (centres undefined) | -3.485 | -9.355 |
| `CN(CC1(CO)CCCC1)C(=O)c1cc(COc2ccccc2F)[nH]n1` | -10.11 | -12.25 |
| `O=C(CCc1ccccc1)C1CCCN(Cc2cncn2C2CC2)C1` (centres undefined) | -14.47 | -10.81 |
| `CNc1cc(-c2ccncc2)ncn1` | 12.01 | -16.05 |
| `CN(Cc1ccccc1)CC(O)Cn1cnc2cc(F)ccc2c1=O` (centres undefined) | -18.24 | -13.16 |
| `CCc1ccsc1C(=O)N(C)CCc1ccncc1` | 0.7884 | -16.8 |
| `COc1nn(C)c2c1CCCN(C(=O)COc1ccccc1)C2` | -3.417 | -5.399 |
| `O=C(c1ccc2ccc(N3CCN(CC4CC4)CC3)n2c1)N1CCCO1` | 11.01 | -10.09 |
| `Cc1cc2c(cc1C)C(NCc1nnc3n1CCCCC3)CCCO2` (centres undefined) | -3.84 | -19.09 |
| `CC(C)Oc1ccccc1CNC(=O)N(C)CC(F)F` | 1.454 | -2.477 |
| `COCCN1CCO[C@H]2CN(C(=O)c3cccs3)C[C@H]21` | 2.575 | -31.45 |
| `CC(NC1(CNS(=O)(=O)N(C)C)CCCC1)c1ccccc1` (centres undefined) | 10.29 | -30.97 |
| `CCOc1ccccc1CCNC(=O)NCC(O)c1cccs1` (centres undefined) | -12.46 | 4.42 |
| `Cc1ccc(C(=O)NCC2COCCO2)c(=O)[nH]1` (centres undefined) | -1.86 | -16.66 |
| `Cn1cc(C2COC3(CCN(C(=O)c4cccn4C)CC3)C2)cn1` (centres undefined) | 17.67 | -46.2 |
| `Cc1ccc(C)c(S(=O)(=O)NCCOc2ccc3nnc(C)n3n2)c1` | -1.177 | 46.77 |
| `Cc1cnn(C2CN(CC(O)c3ccc4c(c3)OCCO4)C2)c1` (centres undefined) | -0.6712 | -11.64 |
| `CCc1c(C(=O)Nc2ccc(F)c(C(=O)NC)c2)cnn1CC(C)C` | 0.0246 | -0.4464 |
| `CC(C)(C)C(=O)N[C@H]1CC[C@H](Nc2nccc(-c3ccncc3)n2)C1` | -3.962 | -2.413 |
| `Cn1cc(CN2CCN(Cc3nccn3C)CC2)cn1` | 15.47 | -6.818 |
| `Cc1ccsc1C(=O)Nc1cc(Br)c(=O)n(C)c1` | 5.611 | -20.37 |
| `Cc1nccnc1N1CCC(Cc2ccccc2Cl)(C(=O)O)CC1` | 10.21 | -20.05 |
| `O=C(CC1=CSC2=NCCCN12)N1CCCCC1c1cccc(F)c1` (centres undefined) | 27.02 | -12.59 |
| `O=C(NC1CCCNC1)c1cc(COc2cccc(C(F)(F)F)c2)[nH]n1` (centres undefined) | 3.905 | -35.87 |
| `Cn1cc(CN2C[C@H]3CCC[C@@]3(COCC3CC3)C2)cn1` | -2.153 | -4.043 |
| `CCc1nc(CN2CCCN(C(=O)c3ccccc3)CC2)cs1` | 6.012 | -2.179 |
| `CN1CCC(C(=O)NCc2nncn2-c2ccccc2)CC1=O` (centres undefined) | -4.415 | -7.807 |
| `Cc1cccc2cc(CN3CCC(N4CCOCC4)CC3)c(=O)[nH]c12` | -22.2 | -2.255 |
| `Cc1n[nH]c(C2CN(Cc3csc(C4CCCCC4)n3)CCO2)n1` (centres undefined) | 1.983 | -18.92 |
| `Cc1cc(Cl)ccc1C(=O)C1CCCN(Cc2cnc(N(C)C)s2)C1` (centres undefined) | -20.4 | -42.52 |
| `Cn1nnc(C2(NC(=O)c3ccccc3)CCCC2)n1` | -7.795 | -8.022 |
| `COc1cccc(-c2cnc(CNC(C)(C)c3nc(C)cs3)o2)c1` | -6.521 | -27.53 |
| `O=C(Cc1ccccc1)NCCNCc1cccc(O)c1` | 17.62 | -16.38 |
| `COc1ccc(CN(C(=O)CCC(C)C)c2cnn(C)c2)c(OC)c1` | -8.572 | -38.94 |
| `Cc1n[nH]c(CCC(=O)N2CCOC(Cc3ccccc3)C2)c1C` (centres undefined) | -1.636 | -11.5 |
| `NC(=O)N1CCc2ncc(CNC(=O)CC3CC3)n2CC1` | 10.36 | 5.013 |
| `CCc1noc(CN(C)Cc2cc(Br)ccc2OC)n1` | -10.33 | 13.54 |
| `CC(NC(=O)Nc1ccc(-c2csnn2)cc1)C(=O)NC(C)(C)C` (centres undefined) | -16.13 | -3.428 |
| `Cn1cccc1C(=O)N1Cc2c(CN3CCCCC3)nn(C)c2C1` | -8.631 | -3.568 |
| `Cn1cc(CN(C/C=C/c2ccccc2)C2CC2)cn1` | 3.559 | 1.068 |
| `CC(=O)N1CCC(c2cnc(NC3CCOCC3)cn2)CC1` | -215.1 | 5.234 |
| `CCOCCCNC(=O)c1nn(CC)cc1Br` | -8.233 | -7.679 |
| `Cc1nc(-c2ccsc2)ccc1C(=O)N1CCn2c(C)nnc2C1` | 4.352 | -19.9 |
| `CCOCc1ccccc1NC(=O)NCC(C)(O)c1ccsc1` (centres undefined) | 4.347 | -18.72 |
| `Cc1ccc([C@H]2CN(C(=O)CC3CCC3)C[C@@H]2N)o1` | -7.778 | -20.18 |
| `CCN1CCC(NC(=O)CN2CCCC2Cn2cncn2)CC1` (centres undefined) | -2.224 | -6.927 |
| `O=C(c1cc[nH]n1)N1CC[C@@H]2CN(Cc3ccncc3)S(=O)(=O)[C@@H]2CC1` | -5.709 | -35.21 |
| `O=S(=O)(CCCNC1CCc2ncnn2C1)c1ccccc1` (centres undefined) | 11.88 | -14.94 |
| `CC(C)CN1CCCn2nc(CNC(=O)NC(C)(C)C)cc2C1` | -20.98 | -32.79 |
| `COCCN1CCC1c1cc(NC2CCCC2)nc(C)n1` (centres undefined) | -17.2 | 0.3751 |
| `COCCn1ccnc1C1CCN(C(=O)c2cccc(COC)n2)CC1` | 0.528 | -35.9 |
| `CCN1CCN(C2CCN(Cc3nc(CCOC)no3)CC2)C1=O` | -11.93 | -6.584 |

Some entries from above, unchanged:

structure	ClpP1P2	Pks13 thioesterase
CN1CCC(C(=O)NCc2nncn2-c2ccccc2)CC1=O (centres undefined)	-4.415	-7.807
Cc1ccc([C@H]2CN(C(=O)CC3CCC3)C[C@@H]2N)o1	-7.778	-20.18
Cc1cnn(C2CN(CC(O)c3ccc4c(c3)OCCO4)C2)c1 (centres undefined)	-0.6712	-11.64
COCCN1CCO[C@H]2CN(C(=O)c3cccs3)C[C@H]21	2.575	-31.45